Measured values: the supplement of paper PMC12067093, “Discovery and optimisation of a covalent ligand for TRIM25 and its application to targeted protein ubiquitination” (Chemical Science, 2025)
Some of the results follow.

Chains of the proteins cited; added tags and fusions are not shown. Lines headed by an entry give the natural chain unless they say otherwise; changes in a name come on top.
UniProt O94819: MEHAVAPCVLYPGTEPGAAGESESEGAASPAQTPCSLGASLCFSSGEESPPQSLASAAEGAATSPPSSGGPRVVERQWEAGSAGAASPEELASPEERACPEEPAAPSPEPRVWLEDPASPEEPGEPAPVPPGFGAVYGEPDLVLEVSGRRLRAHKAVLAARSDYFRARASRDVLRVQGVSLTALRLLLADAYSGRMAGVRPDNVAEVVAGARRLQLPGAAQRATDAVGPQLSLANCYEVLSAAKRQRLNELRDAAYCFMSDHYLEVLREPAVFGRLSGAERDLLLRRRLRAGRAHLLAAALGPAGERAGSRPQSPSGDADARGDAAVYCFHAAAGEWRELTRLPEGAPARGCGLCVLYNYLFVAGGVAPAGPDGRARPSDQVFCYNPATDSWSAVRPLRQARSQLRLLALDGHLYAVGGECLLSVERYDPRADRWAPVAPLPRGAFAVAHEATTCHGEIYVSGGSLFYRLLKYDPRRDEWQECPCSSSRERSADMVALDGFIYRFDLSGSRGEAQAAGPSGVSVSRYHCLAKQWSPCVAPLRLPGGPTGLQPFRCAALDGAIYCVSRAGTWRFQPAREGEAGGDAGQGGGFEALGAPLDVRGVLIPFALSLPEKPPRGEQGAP
UniProt Q7Z3B3: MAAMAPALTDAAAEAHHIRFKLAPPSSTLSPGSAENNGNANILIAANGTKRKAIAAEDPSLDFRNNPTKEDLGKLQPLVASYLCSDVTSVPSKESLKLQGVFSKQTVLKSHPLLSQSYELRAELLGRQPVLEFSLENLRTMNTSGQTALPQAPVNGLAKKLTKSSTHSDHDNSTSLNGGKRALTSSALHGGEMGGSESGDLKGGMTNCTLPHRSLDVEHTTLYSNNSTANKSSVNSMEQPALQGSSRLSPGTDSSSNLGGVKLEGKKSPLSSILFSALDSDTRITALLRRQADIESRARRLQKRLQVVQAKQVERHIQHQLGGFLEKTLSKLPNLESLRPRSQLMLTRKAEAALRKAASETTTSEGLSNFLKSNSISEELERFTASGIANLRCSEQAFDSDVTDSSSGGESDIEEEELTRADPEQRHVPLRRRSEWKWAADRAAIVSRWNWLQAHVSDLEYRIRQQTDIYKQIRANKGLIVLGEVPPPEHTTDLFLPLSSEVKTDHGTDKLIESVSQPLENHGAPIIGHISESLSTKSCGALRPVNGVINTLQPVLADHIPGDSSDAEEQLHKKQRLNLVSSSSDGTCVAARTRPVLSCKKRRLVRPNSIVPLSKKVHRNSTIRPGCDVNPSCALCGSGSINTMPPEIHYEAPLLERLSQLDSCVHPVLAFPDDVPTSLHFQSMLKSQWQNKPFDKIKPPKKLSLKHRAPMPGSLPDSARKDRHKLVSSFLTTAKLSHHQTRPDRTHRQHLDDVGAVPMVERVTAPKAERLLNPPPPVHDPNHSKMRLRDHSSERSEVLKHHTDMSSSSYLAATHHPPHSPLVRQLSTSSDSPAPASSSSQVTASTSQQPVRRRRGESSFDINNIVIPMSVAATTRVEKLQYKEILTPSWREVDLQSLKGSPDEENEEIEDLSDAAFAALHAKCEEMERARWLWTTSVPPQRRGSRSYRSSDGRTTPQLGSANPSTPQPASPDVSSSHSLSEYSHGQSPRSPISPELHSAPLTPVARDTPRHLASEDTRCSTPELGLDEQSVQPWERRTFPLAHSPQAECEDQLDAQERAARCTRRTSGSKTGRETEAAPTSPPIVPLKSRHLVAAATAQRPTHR
UniProt Q15652: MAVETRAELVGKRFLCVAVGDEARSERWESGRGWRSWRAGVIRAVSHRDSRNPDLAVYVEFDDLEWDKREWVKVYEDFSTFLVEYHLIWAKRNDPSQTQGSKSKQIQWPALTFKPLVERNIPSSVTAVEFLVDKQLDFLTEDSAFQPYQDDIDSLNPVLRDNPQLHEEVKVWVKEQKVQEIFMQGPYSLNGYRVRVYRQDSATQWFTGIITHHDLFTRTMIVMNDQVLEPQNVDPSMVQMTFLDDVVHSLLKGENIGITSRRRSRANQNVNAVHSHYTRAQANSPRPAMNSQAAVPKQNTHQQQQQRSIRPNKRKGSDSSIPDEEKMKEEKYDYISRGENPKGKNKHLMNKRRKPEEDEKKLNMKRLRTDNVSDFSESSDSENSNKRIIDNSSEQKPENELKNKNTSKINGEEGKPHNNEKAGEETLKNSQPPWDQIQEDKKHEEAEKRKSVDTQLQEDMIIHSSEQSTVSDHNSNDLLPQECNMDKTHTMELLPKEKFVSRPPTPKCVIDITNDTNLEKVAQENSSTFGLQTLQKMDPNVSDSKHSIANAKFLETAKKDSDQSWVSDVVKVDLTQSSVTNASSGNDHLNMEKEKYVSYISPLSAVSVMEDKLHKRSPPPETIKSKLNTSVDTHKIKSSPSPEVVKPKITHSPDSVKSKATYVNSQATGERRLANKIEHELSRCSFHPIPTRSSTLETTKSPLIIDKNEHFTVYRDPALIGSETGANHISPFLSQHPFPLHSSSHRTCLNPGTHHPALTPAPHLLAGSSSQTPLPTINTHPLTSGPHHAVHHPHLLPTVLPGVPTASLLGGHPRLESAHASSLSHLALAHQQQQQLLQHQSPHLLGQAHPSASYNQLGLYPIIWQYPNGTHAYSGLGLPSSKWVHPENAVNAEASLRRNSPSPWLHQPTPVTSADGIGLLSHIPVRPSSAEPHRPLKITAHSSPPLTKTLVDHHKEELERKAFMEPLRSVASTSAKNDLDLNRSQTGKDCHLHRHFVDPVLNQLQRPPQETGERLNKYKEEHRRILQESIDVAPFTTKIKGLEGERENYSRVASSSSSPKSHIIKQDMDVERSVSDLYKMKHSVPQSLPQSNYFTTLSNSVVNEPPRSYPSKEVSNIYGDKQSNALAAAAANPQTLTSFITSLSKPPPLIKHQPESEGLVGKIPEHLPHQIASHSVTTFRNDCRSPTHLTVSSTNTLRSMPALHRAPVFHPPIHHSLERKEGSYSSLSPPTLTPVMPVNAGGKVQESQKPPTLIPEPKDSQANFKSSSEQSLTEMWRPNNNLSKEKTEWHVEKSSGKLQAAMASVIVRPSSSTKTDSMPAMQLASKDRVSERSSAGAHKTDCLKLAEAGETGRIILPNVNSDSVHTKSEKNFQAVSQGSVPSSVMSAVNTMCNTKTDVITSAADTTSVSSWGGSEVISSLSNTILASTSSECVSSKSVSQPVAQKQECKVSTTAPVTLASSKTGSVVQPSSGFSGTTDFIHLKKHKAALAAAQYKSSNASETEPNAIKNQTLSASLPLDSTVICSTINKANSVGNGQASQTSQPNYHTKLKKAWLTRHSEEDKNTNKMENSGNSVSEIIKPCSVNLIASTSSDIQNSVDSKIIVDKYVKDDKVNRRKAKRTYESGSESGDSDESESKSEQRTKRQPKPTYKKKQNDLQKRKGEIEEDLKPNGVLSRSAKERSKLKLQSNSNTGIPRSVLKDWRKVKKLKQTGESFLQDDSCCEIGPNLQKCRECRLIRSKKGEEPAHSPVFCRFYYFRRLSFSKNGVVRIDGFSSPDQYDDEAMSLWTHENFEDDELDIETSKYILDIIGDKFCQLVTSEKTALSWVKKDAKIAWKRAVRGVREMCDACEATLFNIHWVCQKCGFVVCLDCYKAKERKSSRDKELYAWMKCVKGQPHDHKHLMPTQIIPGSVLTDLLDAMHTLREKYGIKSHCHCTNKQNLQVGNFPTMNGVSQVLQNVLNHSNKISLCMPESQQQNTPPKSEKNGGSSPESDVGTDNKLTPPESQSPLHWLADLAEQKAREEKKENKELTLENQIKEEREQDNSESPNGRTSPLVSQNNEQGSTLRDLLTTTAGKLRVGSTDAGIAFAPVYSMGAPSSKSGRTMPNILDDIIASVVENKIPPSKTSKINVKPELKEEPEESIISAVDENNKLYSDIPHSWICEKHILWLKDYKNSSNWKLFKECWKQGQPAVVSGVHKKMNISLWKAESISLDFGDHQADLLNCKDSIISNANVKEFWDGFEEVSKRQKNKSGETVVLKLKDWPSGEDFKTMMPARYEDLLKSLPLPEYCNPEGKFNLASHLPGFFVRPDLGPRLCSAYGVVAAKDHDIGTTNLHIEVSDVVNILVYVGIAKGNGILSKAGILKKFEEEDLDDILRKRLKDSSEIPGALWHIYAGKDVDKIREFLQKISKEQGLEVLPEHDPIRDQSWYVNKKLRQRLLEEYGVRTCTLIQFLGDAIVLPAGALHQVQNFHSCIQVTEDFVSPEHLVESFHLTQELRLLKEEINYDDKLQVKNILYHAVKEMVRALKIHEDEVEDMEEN
UniProt Q6UW63: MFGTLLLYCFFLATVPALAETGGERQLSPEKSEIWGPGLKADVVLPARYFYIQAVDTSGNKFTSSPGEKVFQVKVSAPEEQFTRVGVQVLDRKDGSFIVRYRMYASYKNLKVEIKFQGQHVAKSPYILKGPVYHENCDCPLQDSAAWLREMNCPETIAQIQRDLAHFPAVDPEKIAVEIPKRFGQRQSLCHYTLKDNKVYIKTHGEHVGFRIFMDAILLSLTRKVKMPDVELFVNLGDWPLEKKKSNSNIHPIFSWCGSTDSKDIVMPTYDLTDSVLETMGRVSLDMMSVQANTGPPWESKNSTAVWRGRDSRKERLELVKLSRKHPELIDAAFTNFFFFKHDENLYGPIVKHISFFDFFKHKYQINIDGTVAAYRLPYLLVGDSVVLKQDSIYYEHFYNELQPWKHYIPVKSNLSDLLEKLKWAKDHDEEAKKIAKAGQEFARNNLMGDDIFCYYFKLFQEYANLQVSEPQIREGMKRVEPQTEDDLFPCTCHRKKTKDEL
UniProt Q92993, whole entry, looked up: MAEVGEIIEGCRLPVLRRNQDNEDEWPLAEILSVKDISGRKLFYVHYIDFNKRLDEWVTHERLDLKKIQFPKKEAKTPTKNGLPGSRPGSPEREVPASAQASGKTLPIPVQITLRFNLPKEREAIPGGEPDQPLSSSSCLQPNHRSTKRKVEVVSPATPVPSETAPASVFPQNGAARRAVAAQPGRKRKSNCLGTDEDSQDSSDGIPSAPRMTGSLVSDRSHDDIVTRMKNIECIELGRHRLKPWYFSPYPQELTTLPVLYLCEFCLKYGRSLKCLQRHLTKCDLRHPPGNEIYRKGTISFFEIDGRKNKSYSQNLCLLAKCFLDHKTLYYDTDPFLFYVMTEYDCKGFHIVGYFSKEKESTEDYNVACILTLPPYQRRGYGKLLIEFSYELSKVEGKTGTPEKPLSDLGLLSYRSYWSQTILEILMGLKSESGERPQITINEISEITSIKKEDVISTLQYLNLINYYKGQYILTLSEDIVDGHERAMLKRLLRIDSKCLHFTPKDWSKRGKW
UniProt O75449: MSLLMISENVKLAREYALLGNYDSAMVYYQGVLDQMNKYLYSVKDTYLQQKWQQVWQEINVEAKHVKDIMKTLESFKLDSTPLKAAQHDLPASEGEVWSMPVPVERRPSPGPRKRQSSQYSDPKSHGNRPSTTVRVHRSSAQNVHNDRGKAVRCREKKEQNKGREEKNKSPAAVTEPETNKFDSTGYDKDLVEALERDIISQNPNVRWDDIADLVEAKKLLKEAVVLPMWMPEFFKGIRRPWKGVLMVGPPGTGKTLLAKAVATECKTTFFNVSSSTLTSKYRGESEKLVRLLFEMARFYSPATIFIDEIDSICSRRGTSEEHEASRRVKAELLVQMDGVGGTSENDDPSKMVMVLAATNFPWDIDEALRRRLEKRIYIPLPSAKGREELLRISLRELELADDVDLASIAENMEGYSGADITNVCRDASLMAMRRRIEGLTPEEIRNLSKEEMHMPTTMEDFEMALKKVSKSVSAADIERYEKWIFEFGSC
UniProt Q9H7Z6: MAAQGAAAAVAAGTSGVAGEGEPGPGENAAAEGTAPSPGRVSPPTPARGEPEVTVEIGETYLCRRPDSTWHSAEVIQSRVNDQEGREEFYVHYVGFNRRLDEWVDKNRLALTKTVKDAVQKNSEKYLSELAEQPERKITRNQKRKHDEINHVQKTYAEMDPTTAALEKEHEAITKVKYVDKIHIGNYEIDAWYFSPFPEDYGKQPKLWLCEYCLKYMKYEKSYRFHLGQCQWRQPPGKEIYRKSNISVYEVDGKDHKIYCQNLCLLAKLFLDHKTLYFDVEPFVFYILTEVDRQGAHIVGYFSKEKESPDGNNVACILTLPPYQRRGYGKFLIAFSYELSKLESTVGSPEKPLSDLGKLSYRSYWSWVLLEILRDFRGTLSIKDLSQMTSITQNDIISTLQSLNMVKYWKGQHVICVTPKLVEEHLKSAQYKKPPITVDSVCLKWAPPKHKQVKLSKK
UniProt Q06136: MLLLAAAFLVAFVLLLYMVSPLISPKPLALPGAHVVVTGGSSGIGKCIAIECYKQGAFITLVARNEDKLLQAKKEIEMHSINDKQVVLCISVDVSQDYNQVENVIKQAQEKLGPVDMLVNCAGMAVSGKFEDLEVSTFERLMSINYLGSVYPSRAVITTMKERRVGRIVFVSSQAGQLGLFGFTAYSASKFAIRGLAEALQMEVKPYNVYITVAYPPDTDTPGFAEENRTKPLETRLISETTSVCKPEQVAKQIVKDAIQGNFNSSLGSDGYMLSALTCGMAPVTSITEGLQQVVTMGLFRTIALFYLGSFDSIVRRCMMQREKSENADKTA

Compound: Cc1cc(ccc1-c1ccccc1)C(=O)N1CCCN(CC1)C(=O)CCl [compound 10]
Experiment: probe-labelled cysteine peptide fold change vs DMSO (competition) (log2 fold change); higher = less target engagement (more negative = stronger competition)
Settings: THP-1, incubation time: 4 h
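Further: competitive profiling in live THP-1 cells: cysteine peptides tagged with an iodoacetamide desthiobiotin (IA-DTB) probe, intensity after compound treatment relative to DMSO-treated cells.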

| Target | probe-labelled cysteine peptide fold change (10 µM) | probe-labelled cysteine peptide fold change (50 µM) |
| --- | --- | --- |
| ITPR1_Q14643_2277_AQPVLYWCAR (UniProt Q14643) | 0.0331 | -0.0613 |
| KIDINS220_Q9ULH0_1250_VLAQCNIDELKK (UniProt Q9ULH0) | 0.165 | 0.176 |
| KBTBD11_O94819_421_LLALDGHLYAVGGECLLSVER (UniProt O94819) | 0.0221 | 0.0279 |
| KIAA1109_Q2LD37_3091_CVAEVGSFEHNLTTDLLNHLVFVQK (UniProt Q2LD37) | 0.244 | 0.178 |
| KIF1C_O43896_685_SCEESWR (UniProt O43896) | -0.312 | -0.0529 |
| KDM3A_Q9Y4C1_947_RPQGLTIKPSILGFDTPHYWLCDNR (UniProt Q9Y4C1) | 0.131 | -0.0916 |
| KARS_Q15046_209_KGELSIIPYEITLLSPCLHMLPHLHFGLK (UniProt Q15046) | -0.0106 | 0.107 |
| KIF20A_O95235_809_AACIAEQYHTVLK (UniProt O95235) | 0.0927 | -0.075 |
| KIAA0100_Q14667_1055_LVGTEQSGQPCSR (UniProt Q14667) | -0.0737 | -0.179 |
| KDM2A_Q9Y2K7_463_CLVDKLESLPLHK (UniProt Q9Y2K7) | -0.0991 | -0.31 |
| KDM1A_O60341_618_CDAVLCTLPLGVLK (UniProt O60341) | 0.134 | 0.316 |
| KANSL1_Q7Z3B3_664_LSQLDSCVHPVLAFPDDVPTSLHFQSMLK (UniProt Q7Z3B3) | 0.225 | -0.101 |
| IVNS1ABP_Q9Y6Y0_32_SGQFCDVR (UniProt Q9Y6Y0) | -0.0224 | -0.0322 |
| JMJD1C_Q15652_1935_SHCHCTNK (UniProt Q15652) | 0.123 | -0.146 |
| KDELC1_Q6UW63_153_EMNCPETIAQIQR (UniProt Q6UW63) | 0.0284 | -0.0329 |
| KAT5_Q92993_234_NIECIELGR (UniProt Q92993) | -0.0819 | -0.0446 |
| KATNA1_O75449_491_WIFEFGSC (UniProt O75449) | -0.176 | 0.0599 |
| KAT8_Q9H7Z6_442_KPPITVDSVCLK (UniProt Q9H7Z6) | 0.252 | 0.135 |
| KIF13B_Q9NQT8_773_DLYQEWKECEEDNPVIR (UniProt Q9NQT8) | -0.183 | -0.526 |
| KDELC2_Q7Z4H8_141_GPVYHEYCECPEDPQAWQK (UniProt Q7Z4H8) | -0.0978 | -0.115 |

Given tab-delimited: entries from further up
Target	probe-labelled cysteine peptide fold change (10 µM)	probe-labelled cysteine peptide fold change (50 µM)
KBTBD11_O94819_421_LLALDGHLYAVGGECLLSVER (UniProt O94819)	0.0221	0.0279
KARS_Q15046_209_KGELSIIPYEITLLSPCLHMLPHLHFGLK (UniProt Q15046)	-0.0106	0.107
KIAA0100_Q14667_1055_LVGTEQSGQPCSR (UniProt Q14667)	-0.0737	-0.179
KDM1A_O60341_618_CDAVLCTLPLGVLK (UniProt O60341)	0.134	0.316
KANSL1_Q7Z3B3_664_LSQLDSCVHPVLAFPDDVPTSLHFQSMLK (UniProt Q7Z3B3)	0.225	-0.101
KAT5_Q92993_234_NIECIELGR (UniProt Q92993)	-0.0819	-0.0446
KATNA1_O75449_491_WIFEFGSC (UniProt O75449)	-0.176	0.0599
KAT8_Q9H7Z6_442_KPPITVDSVCLK (UniProt Q9H7Z6)	0.252	0.135
KIF13B_Q9NQT8_773_DLYQEWKECEEDNPVIR (UniProt Q9NQT8)	-0.183	-0.526

(further entries)

| Target | probe-labelled cysteine peptide fold change (10 µM) | probe-labelled cysteine peptide fold change (50 µM) |
| --- | --- | --- |
| KEAP1_Q14145_77_LSQQLCDVTLQVK (UniProt Q14145) | 0.124 | 0.0543 |
| KIDINS220_Q9ULH0_412_AGETPYNIDCSHQK (UniProt Q9ULH0) | -0.0994 | -0.102 |
| KAT2A_Q92830_653_DYEGATLMECELNPR (UniProt Q92830) | -0.00417 | 0.173 |
| KDELC1_Q6UW63_257_SNSNIHPIFSWCGSTDSK (UniProt Q6UW63) | 0.142 | 0.253 |
| KIF13B_Q9NQT8_1234_AEASWDSAVHGCPQLSR (UniProt Q9NQT8) | 0.0263 | -0.115 |
| KHDC4_Q7Z7F0_116_SKDDLVVAEVEINDVPLTCR (UniProt Q7Z7F0) | -0.146 | -0.301 |
| KDM2B_Q8NHM5_770_RSECEEAPR (UniProt Q8NHM5) | -0.00274 | 0.204 |
| JMJD1C_Q15652_508_CVIDITNDTNLEK (UniProt Q15652) | -0.239 | -0.0495 |
| KIAA0391_O15091_367_TIESIQLSPEEYECLK (UniProt O15091) | 0.00631 | -0.562 |
| KATNB1_Q9BVA0_579_YESYVQTGCTSLK (UniProt Q9BVA0) | -0.0669 | 0.238 |
| KDSR_Q06136_47_CIAIECYK (UniProt Q06136) | -0.0888 | -0.119 |
| ITPR2_Q14571_379_ADCLVPR (UniProt Q14571) | -0.135 | -0.509 |
| KIDINS220_Q9ULH0_779_LVVIIDGLDACEQDK (UniProt Q9ULH0) | -0.272 | -0.123 |
| KAT6A_Q92794_773_LQLNLRPVDVDPECLR (UniProt Q92794) | 0.0407 | 0.0173 |
| KAT2A_Q92830_695_KVYPGLSCFK (UniProt Q92830) | -0.275 | -0.87 |
| KDM1A_O60341_573_NGYSCVPVALAEGLDIK (UniProt O60341) | -0.0155 | 0.182 |
| KDM1A_O60341_618+623_CDAVLCTLPLGVLK (UniProt O60341) | 0.15 | 0.245 |
| KAT8_Q9H7Z6_230_FHLGQCQWR (UniProt Q9H7Z6) | -0.109 | 0.0661 |
| KANSL3_Q9P2N6_161_LANEGACNEPVLR (UniProt Q9P2N6) | -0.241 | -0.44 |
